Experimental data taken from PubChem BioAssay AID588590 (National Center for Advancing Translational Sciences (NCATS), 2011).
About 4,000 (1%) of roughly 390,000 compounds were called active. The shares of active, inactive and inconclusive entries below differ from those in the screen. Calls follow the shape of the dose curve; as a rule, active = well fitted inhibition curve with a large enough effect; inconclusive = small, poorly fitted or top-dose-only effect, or another doubt; inactive = no such curve, though single readings can be large or run the other way. Potencies beside an inconclusive call are fits to weak or partial responses and may not hold up.

By UniProt entry, the sequences of proteins in these tests, tags left out. Where a name states a change or a piece, a line headed by the entry shows the natural chain unless it says otherwise.
UniProt Q9UNA4: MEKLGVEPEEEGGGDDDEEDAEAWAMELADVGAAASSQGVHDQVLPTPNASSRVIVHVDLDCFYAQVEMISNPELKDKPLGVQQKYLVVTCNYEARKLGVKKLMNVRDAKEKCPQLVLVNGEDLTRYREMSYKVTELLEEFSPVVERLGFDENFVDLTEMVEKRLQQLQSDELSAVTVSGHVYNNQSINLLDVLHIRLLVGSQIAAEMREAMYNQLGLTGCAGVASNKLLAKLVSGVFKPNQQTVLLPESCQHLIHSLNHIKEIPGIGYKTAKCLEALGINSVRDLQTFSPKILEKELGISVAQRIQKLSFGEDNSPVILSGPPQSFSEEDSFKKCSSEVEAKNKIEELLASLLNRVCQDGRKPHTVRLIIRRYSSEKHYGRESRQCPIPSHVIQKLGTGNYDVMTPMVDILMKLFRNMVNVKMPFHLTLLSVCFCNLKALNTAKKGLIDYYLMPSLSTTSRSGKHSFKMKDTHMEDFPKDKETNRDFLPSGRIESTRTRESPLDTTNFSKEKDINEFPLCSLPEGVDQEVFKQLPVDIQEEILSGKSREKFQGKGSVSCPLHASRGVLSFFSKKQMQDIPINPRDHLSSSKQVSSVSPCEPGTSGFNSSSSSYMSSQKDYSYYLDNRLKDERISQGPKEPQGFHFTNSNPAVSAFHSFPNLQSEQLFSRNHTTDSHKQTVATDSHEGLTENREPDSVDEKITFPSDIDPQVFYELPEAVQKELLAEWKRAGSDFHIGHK

Biological target: DNA polymerase iota (Homo sapiens) (UniProt Q9UNA4)
Assay: qHTS for Inhibitors of Polymerase Iota
Conditions: Pol iota fluorescent replication assay, 10 min; series mostly up to 115 µM; activity, negative = inhibition: at the top concentration
Procedure, shortened: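 Pol iota at 10 nM preincubated 15 min with compounds at room temperature; reaction started with fluorescent substrate, 50 nM final. Fluorescence read kinetically at 0 and 10 min; buffer-only wells as negative control.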
Potency is read from the fitted curve at half-maximal effect.

Structure (SMILES)	Potency	activity, negative = inhibition
CC1(C)Cc2c(C#N)c(NCc3ccco3)nc(-c3ccco3)c2CO1	inconclusive: 25.1 µM [inhibitor, partial curve, poor fit]	
CC/C=C\[C@H](O)[C@H](O)C1=C(C)C(=O)[C@]2(O1)C(=O)N[C@@](OC)(C(=O)c1ccccc1)C2O (some centres not stated)	inconclusive: 89.1 µM [inhibitor, single point]	
Cc1ccc(S(=O)(=O)c2nc(-c3ccccc3)oc2N2CCC(C(N)=O)CC2)cc1	inconclusive: 70.8 µM [inhibitor, partial curve, poor fit]	
O=c1oc2ccc(Br)cc2cc1-c1nc(-c2ccccc2)no1	inconclusive: 89.1 µM [inhibitor, single point]	
COc1ccc(C(=O)c2oc3ccccc3c2NC(=O)COc2c(C)cc(C)cc2C)cc1		inactive: -9.67%
CN(C)c1ccc(/C=C/c2sc3ccccc3[n+]2Cc2ccccc2)cc1	active: 79.4 µM	
COCCNC(=O)CCCn1c(SCC(=O)Nc2cccc(C)c2)nc2c(sc3ccccc32)c1=O		inactive: 17.8%
O=c1c2cnn(-c3ccccc3)c2nc(-c2ccco2)n1-c1ccccc1	inconclusive: 22.4 µM [inhibitor, partial curve]	
Cn1cnc([N+](=O)[O-])c1S(=O)(=O)c1cccc(Cl)c1	inconclusive: 39.8 µM [inhibitor, single point]	
Cc1cc(=O)[nH]c(-n2nc(C)cc2C)n1	inconclusive: 17.8 µM [inhibitor, partial curve, poor fit]	
O=C(/C=C/c1ccc2c(c1)OCO2)Nc1cccnc1	inconclusive: 39.8 µM [inhibitor, single point]	
O=C(N/N=C/c1sc(=O)[nH]c1-[n+]1ccc2ccccc2c1)c1ccccc1[O-]	inconclusive: 7.08 µM [inhibitor, full curve, poor fit]	
Cc1cc(NC(=O)CSc2nc(=O)cc(N)n2-c2ccc(F)cc2)no1	inconclusive: 89.1 µM [inhibitor, single point]	
COc1ccccc1C(=O)NC(CCSC)C(=O)OCC(=O)NC(=O)NCc1ccco1 (configuration not stated)	inconclusive: 28.2 µM [inhibitor, partial curve]	
CC(=O)Nc1ccc(S(=O)(=O)/N=C2\C(=O)c3ccccc3C([O-])=C2n2cc[n+](-c3ccccn3)c2)cc1	inconclusive: 12.6 µM [inhibitor, full curve, poor fit]	
O=C(OCc1ccccc1)/C(=C/c1ccccc1Cl)NC(=O)c1ccco1		inactive: 18.4%
COc1ccc2c(c1OC)C(=O)OC2Nc1nc(-c2cc3ccccc3oc2=O)cs1 (configuration not stated)	inconclusive: 79.4 µM [inhibitor, partial curve]	

Part of the list above, in markdown.

| Structure (SMILES) | Potency | activity, negative = inhibition |
| --- | --- | --- |
| COc1ccc(C(=O)c2oc3ccccc3c2NC(=O)COc2c(C)cc(C)cc2C)cc1 |  | inactive: -9.67% |
| CN(C)c1ccc(/C=C/c2sc3ccccc3[n+]2Cc2ccccc2)cc1 | active: 79.4 µM |  |
